Measured values: patent US8546404B2, “Compounds that are ERK inhibitors” (Merck Sharp & Dohme, priority 2005, dated 2013)
The structures given here were assigned with low confidence; some may be wrong.

Experiment: Cassette Accelerating Rapid Rat Screen (CARRS), AUC during the first 6 hours
Type: in vivo, Male Sprague-Dawley rats
Settings: AUC during the first 6 hours (AUC6hr)

Structure (SMILES): C#CC1(C(=O)Nc2ccc3[nH]nc(-c4ccc(F)cc4)c3c2)CCN(CC(=O)N2CCN(c3ccc(-c4ncccn4)cn3)C[C@H]2C)C1 (stereo partly shown)
- Rat AUC PO: 6.466 µM·h
